Test results: patent publication US20250075002A1
No constants are given. Whether binding was seen depends on the method and setting.

Amino acid sequences for entries named in this document (tags omitted). A change or cut given only in a name is not applied to a line headed by its entry.
UniProt O75015: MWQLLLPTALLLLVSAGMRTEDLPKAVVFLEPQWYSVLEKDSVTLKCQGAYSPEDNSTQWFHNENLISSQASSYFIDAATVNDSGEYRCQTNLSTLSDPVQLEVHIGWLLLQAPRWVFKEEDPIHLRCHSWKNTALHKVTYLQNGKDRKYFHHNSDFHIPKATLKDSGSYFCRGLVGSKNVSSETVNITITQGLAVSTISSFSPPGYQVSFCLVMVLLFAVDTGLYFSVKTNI

Tests used:
[1] = biological target: human CD16B-His6 (NA1) (human) (UniProt O75015); assay: condition: one concentration (paragraph 202 prints 1 mg/ml); antigen ELISA, coated Human CD16B (NA1), HRP anti-human IgG
[2] = biological target: human CD16B-His6 (NA2) (human) (UniProt O75015); assay: condition: one concentration (paragraph 202 prints 1 mg/ml); antigen ELISA, coated Human CD16B (NA2), HRP anti-human IgG
[3] = biological target: human CD16B (NA2) on NK92mi cells (human) (UniProt O75015); assay: FACS, NK92mi/CD16B (NA2) cells, Alexa Fluor 647 anti-human IgG Fc
[4] = biological target: human CD16B (NA1) on NK92mi cells (human) (UniProt O75015); assay: FACS, NK92mi/CD16B (NA1) cells, Alexa Fluor 647 anti-human IgG Fc

B1: LS21 (scFv)
scFv: EVQLVQSGAEVKKPGESLKVSCKASGYTFTSYYMHWVRQAPGQGLEWMGIINPSGGSTSYAQKFQGRVTMTRDTSTSTVYMELSSLRSEDTAVYYCARGSAYYYDFADYWGQGTLVTVSSGGGGSGGGGSGGGGSQPVLTQPSSVSVAPGQTATISCGGHNIGSKNVHWYQQRPGQSPVLVIYQDNKRPSGIPERFSGSNSGNTATLTISGTQAMDEADYYCQVWDNYSVLFGGGTKLTVL
**Q.** How did the binding [1] turn out when B1 was run?
**A.** Its binding is “no binding”.

**Q.** And the binding [2]?
**A.** Its binding is “no binding”.

**Q.** And the binding [3]?
**A.** Its binding is “no binding (tested: 50 ug/ml)”.

**Q.** What about the binding [4] of the same binder?
**A.** Its binding is “no binding (tested: 50 ug/ml)”.
